According to paper PMC9359917:
Construct, isoform or probe ends are uncertain for at least one entry. At least one verdict rests on a figure or table, not on a statement of the authors.

Test system: nucleolin (NCL)
Test: NCL-triggered DNA filament assembly (confocal microscopy and AFM; indirect read-out)
Conditions: aptamer used with dual-responsive DNA tile, filaments assemble after NCL, disassemble after ATP; Filaments in 1x TAE with 20 mM MgCl2 (stated for other filament assays); water-in-oil droplets; pH and temperature not given; folded or branched DNA

## GGTGGTGGTGGTTGTGGTGGTGGTGG [Nucleolin aptamer (dual-aptamer reaction)]
  binding result: binds
